## Results from one PubChem assay

From PubChem BioAssay record AID1159506 (NCATS, 2015).

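Genome-wide siRNA knockdown in TC32 Ewing sarcoma cells, comparing luciferase light from an NR0B1-promoter reporter with a CMV-promoter reporter 48 hours after transfection. Each siRNA was applied at 20 nM. A z-score of the log NR0B1-over-CMV signal, less the median of siRNAs with the same seed; more negative means a stronger specific loss of the NR0B1 reporter.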

This is part of the screen; most of the strongest results are not listed here. Sequences are the guide (antisense) strand, without overhang.

Sequence	gene	seed-corrected z-score
UACCUGAUCAGCACUGAAG	NDUFA2	0.3596
AUACGGUCAGCUCUUGUAG	MMACHC	0.2085
GAGAUCGCCACAGACAACG	KRT86	0.5828
UAAGUAAUUGUCUAAAACC	CLIC1	-0.2118
AUUGGUUUCAGCUUAGAUC	TSGA13	-1.152
UCUCCAUUUGUGGUCAUCC	PIGO	-0.6441
UAAGCACCCACCUUGCACU	EXOC5P1	0.31
UUCAUUAUUAUCAUCCACG	TOB1	-0.7021
ACUGGUACCACAUCAUCUG	ITM2B	1.205
AAACUGAUGUCGAAUUAGU	KIAA0101	1.154
ACAGUCCUCACAUAUGUAG	ZNF492	0.3543
AUCAGUAUGGAAAUAUACC	NFS1	0.2039
UAAAACCUCAGGACAUAGC	SEC14L6	-0.1979
UCUAUAUAUUGGUUGAGGG	SELT	0.09344
UUAAAGACUAGGUCUGGUG	NR3C2	-0.591
UUCGCUGUCAUAUAAGUGC	SIM1	-0.1248
UGGGUUCACAUGAUCGUGG	IDO1	0.1044
UAUCUUUUUAGUAACGAUA	CSNK1G2-AS1	1.435
UGGACUUCAAUCCCAAUGC	ARHGAP18	0.8059
UCAAUGGUCAUCCUAAUUG	GABRE	-0.3234
UACUAUCCCUCAUCCAGCC	CHAC1	-0.7339
UACUUUGUACGGCAGCCGU	UFM1	-0.05303
UUCUCCAGAGCGUAAGUGC	FAM89A	0.8996
UCCCGAAUAAACUUGUAGG	GPR173	-0.1377
UUAUAGAUCCCUUCGAUGC	CACNG4	0.1085
UGUAUAAUCAGGUGUGCCC	ZNF192P1	0.5138
UUCUUGAUAAAUUUGAGGG	RPL36	-1.218
UUUGUUCUCAAACCGGGCC	KIAA1671	-1.009
AAAGGGCAGCGGGAUAGUC	B3GNT8	-0.2369
AGAGCUCCAAGUUGAAGCC	GAD1	1.366
UUUCGUUGCUCAUAGGUCC	ATP1A4	-1.703
UCUCAGUUACGUGUGGCGG	RPS28P7	0.2401
AUUAGAAUAAUACAAGGAG	UNC5B-AS1	0.416
UUUCUUCCUAGGACCUUUG	LINC00900	-0.05534
ACAGGGACAAUGGUGCUCA	NAGPA	-0.6939
UAGUCGCUCAAUUAAGUGG	HIP1	-0.1508
UCAUGCUUGAAGGAUUUCC	CCNYL3	-1.047
UUAUCGAUGAACUCGAUGG	DUSP8	0.021
UUUGGUGAGAGUCGAUUUC	IL18RAP	-0.3447
AACCGAACAUCAAAAAUCC	AOC2	-1.265
UCAUGUAACAGCAGCACCA	CERS4	0.4149
AACAUAUUUUCUUAGAUUC	CCHCR1	1.495
AGCAUCAAAAUAUAUCUCU	OR52A4P	-0.6892
UACUAAUUUAGAAUAACUG	DPY19L3	0.5816
UUGAUCUCCAUGUUCGGCC	TMBIM6	-0.5953
AAAUCAUUCCGCAUCCUGG	GAS8	-0.1574
UCUGUGCACAUGUGAAACC	VMO1	0.4366
UUCUUUGAGACCUAAAAAG	BCAP29	1.205
AUGUCAAUGAAAGAUAAGU	OR5A1	-0.2044
UUCGGUGAAACAUAUCAUG	MYCBP2	0.3224
UCGUUCUUAACCAUCACUG	A2M	-0.732
UUAGCUAGAAUGAGAGGUU	CHCHD1	-0.06751
UUGGGUUUUAGAGUAGCAU	NEUROD4	0.6663
UAUGUGACACCGUAGAACU	LOC730202	-0.7302
UCUGUUCACAAGGCCUUCG	FOSL1	-0.1568
UAUGAUGUGCACCUGAUCC	KCNK1	-0.7667
UUCUUAAACAAUUCCACCG	UBAC1	0.09163
UCGCUUUCAAUGAUAGCCG	FSD1	-0.549
UUGAGUUUCUUGACCAGGC	SMAD3	-0.3869
AUCCAAACAGGAUUGCUGC	SLC2A11	-0.1213
UUCAUAACACGAUACUUUG	DCUN1D5	-0.6859
UUUGUUCACUGUUCAAGUC	RDH14	-0.1687
AAAGGUCUUCGUCCAUUGC	PSMA8	-0.2705
UCUUAUACUGCUUAGGGUC	CHSY3	0.6998
UAGGGAUAGAGUUAAGGGC	CDC42SE1	-0.1856
UAUUUGGGACCAUCCUUCG	CAPN13	-0.01928
AUCCAAAUACUCAUAAUUC	ZBTB8OSP1	2.075
UUUCGUAUGCCUCUUGAAC	RPGRIP1	0.3201
UCAUGUUGAUGAAAGACCC	LRIT2	-0.219
UACUCGGCACUGAAAUGUC	ATF2	-0.3878
UUCUUGUCGGCAUUCAAGG	MATN3	-0.04071
UUACUGAGGUACACCAGGC	MRGPRX2	-0.7794
UGAUGUUUCCGGUCACUCC	PRKCD	0.2452
AAACUUCUCUAGCUCUUCC	VPS16	-0.2621
UAUCAAACCGGUAACAGCC	DRICH1	0.1071

For reference, 7 entries once more:

{"sequence": "ACUGGUACCACAUCAUCUG", "gene": "ITM2B", "seed-corrected z-score": "1.205"}
{"sequence": "UCAUGUAACAGCAGCACCA", "gene": "CERS4", "seed-corrected z-score": "0.4149"}
{"sequence": "UACUAUCCCUCAUCCAGCC", "gene": "CHAC1", "seed-corrected z-score": "-0.7339"}
{"sequence": "UUGAGUUUCUUGACCAGGC", "gene": "SMAD3", "seed-corrected z-score": "-0.3869"}
{"sequence": "AUGUCAAUGAAAGAUAAGU", "gene": "OR5A1", "seed-corrected z-score": "-0.2044"}
{"sequence": "UAAGUAAUUGUCUAAAACC", "gene": "CLIC1", "seed-corrected z-score": "-0.2118"}
{"sequence": "UCUGUGCACAUGUGAAACC", "gene": "VMO1", "seed-corrected z-score": "0.4366"}